Data taken from PMC11118681.

Sequences of proteins named here, by UniProt entry; tags and fusion partners are left off.
UniProt O95477: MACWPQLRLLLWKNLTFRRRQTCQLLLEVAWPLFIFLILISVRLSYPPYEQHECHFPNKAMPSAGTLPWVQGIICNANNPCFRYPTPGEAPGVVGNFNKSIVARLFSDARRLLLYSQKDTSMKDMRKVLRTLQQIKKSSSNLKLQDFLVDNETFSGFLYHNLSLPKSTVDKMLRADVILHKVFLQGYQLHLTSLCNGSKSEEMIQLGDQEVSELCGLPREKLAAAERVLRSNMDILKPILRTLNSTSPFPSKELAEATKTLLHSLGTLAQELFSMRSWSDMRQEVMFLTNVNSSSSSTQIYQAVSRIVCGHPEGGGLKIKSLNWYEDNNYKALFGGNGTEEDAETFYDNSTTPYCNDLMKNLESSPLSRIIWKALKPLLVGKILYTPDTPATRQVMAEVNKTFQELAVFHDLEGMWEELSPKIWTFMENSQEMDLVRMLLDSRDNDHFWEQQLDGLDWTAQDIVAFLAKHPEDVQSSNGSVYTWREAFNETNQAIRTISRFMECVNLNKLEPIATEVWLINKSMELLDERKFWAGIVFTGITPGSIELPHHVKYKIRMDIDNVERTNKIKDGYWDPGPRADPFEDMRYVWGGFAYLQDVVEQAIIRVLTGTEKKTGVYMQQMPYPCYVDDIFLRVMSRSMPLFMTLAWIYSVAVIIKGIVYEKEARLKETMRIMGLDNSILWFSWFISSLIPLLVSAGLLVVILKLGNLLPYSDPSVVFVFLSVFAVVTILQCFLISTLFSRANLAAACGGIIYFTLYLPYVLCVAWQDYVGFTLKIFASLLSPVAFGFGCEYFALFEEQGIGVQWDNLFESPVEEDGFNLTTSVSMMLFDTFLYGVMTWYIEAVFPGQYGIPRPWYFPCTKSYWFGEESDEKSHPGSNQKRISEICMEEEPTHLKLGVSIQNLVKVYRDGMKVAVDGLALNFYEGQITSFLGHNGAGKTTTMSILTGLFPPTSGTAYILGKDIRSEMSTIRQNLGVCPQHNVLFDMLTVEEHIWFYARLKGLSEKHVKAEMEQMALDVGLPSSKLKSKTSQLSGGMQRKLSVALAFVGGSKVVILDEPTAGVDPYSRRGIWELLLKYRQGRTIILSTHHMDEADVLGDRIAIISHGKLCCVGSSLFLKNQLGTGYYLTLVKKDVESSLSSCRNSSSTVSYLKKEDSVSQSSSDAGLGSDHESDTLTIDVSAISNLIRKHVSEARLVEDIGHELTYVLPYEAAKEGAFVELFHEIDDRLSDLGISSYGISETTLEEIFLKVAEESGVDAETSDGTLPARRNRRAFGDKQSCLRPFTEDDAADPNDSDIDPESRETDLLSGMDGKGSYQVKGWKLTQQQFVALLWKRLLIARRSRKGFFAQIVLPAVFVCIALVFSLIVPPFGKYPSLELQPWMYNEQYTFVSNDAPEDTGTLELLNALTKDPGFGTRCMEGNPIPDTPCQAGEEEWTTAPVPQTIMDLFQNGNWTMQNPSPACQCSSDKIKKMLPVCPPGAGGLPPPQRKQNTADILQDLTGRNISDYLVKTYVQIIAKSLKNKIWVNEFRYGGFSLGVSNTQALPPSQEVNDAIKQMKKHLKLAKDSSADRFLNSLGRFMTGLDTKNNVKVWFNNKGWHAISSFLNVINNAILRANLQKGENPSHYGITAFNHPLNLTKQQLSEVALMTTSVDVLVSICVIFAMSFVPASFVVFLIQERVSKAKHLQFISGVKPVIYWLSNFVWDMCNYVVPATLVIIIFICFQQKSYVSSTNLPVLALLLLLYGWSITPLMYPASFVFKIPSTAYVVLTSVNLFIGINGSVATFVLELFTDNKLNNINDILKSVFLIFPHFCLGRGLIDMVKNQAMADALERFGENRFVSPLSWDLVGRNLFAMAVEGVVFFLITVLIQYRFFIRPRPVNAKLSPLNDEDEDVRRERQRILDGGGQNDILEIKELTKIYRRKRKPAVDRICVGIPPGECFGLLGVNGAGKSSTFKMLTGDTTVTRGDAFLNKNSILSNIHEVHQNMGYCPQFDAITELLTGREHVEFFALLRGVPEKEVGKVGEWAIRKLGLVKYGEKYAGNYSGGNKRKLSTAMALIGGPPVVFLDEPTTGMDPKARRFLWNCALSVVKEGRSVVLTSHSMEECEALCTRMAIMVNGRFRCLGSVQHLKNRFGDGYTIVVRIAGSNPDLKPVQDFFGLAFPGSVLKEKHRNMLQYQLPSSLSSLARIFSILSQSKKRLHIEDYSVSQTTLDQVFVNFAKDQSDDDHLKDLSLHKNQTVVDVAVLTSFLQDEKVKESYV
UniProt Q03135: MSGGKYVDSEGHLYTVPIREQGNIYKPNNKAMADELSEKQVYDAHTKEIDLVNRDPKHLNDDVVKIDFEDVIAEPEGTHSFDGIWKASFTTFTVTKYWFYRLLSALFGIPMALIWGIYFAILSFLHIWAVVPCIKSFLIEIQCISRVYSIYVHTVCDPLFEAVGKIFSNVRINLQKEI
UniProt P63010: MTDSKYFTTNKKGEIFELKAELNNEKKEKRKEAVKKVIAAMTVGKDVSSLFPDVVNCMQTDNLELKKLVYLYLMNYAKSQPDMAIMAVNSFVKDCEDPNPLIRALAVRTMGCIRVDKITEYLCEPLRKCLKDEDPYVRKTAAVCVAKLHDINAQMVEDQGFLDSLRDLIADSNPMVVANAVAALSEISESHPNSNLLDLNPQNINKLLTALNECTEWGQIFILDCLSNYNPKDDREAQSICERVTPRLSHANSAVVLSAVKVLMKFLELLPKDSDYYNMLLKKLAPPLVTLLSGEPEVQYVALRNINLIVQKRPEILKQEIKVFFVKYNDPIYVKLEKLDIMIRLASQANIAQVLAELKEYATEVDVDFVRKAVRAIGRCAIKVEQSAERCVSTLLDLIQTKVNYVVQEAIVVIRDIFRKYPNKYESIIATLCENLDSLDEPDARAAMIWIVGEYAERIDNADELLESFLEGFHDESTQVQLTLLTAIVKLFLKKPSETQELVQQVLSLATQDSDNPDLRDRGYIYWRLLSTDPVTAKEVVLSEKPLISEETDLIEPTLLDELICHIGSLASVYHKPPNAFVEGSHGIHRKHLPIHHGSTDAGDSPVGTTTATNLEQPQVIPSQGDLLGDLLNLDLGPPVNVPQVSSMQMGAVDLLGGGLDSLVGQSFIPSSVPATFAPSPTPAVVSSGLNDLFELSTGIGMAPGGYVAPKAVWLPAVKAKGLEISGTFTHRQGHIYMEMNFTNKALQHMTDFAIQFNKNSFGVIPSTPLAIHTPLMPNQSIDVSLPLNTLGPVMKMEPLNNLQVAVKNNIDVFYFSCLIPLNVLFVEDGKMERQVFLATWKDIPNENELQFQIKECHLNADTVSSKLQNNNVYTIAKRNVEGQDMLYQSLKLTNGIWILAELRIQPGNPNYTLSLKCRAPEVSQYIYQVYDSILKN

Target: ABCA1-GFP (ATP-binding cassette transporter A1 fused to GFP) (UniProt O95477)
Test: affinity purification with mass spectrometry; GFP-Trap agarose on lysates of HeLa (ABCA1-GFP) cells treated with recombinant APOE3 or APOE4 (0.2 uM, 4 h); lysis in 0.5% NP40, 350 mM NaCl, 20 mM Hepes, 1.2% Triton X-100; overnight at 4°C; glycine elution, TCA precipitation, LC-MS/MS

caveolin-1 (from UniProt Q03135 1-178)
binding: binds

adaptor-related protein complex 2 subunit beta 1 (from UniProt P63010 1-937)
binding: binds

Results are given in words; binding and its absence hold for the method and conditions named. In cells and extracts the contact can be indirect. Here binding means that the protein was enriched with, or labelled near, the bait; the list need not be complete.
